Some of the results follow.
target: OsWRKY34 (Oryza sativa, UniProt Q0JBA9 1-250); experiment: protein-binding microarray (RPBM); PBS, 2% BSA, 51.3 ng/ul salmon testes DNA, 50 uM zinc acetate, 200 nM TF, 25 C, 1 h; high values mean tight binding; details: protein: recombinant; tags: N-terminal polyhistidine and DsRed monomer fusion (pET32a); label: CyDye5-dUTP incorporated in the synthesized complementary strand; 3' TTTTT single-stranded linker to array surface; dsDNA, one strand shown
Outline: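 The binding signal is fluorescence intensity per feature, in arbitrary units, read on an Axon 4000B scanner. Polyhistidine- and DsRed-tagged transcription factors (N-terminal fusions) from E. coli BL21-CodonPlus were purified on Ni–NTA and applied at 200 nM for 1 h at 25 °C to a double-stranded, BSA-blocked custom Agilent array in buffer with 50 µM zinc acetate.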

Chains of the proteins cited; added tags and fusions are not shown.
UniProt Q0JBA9, entry or part of it: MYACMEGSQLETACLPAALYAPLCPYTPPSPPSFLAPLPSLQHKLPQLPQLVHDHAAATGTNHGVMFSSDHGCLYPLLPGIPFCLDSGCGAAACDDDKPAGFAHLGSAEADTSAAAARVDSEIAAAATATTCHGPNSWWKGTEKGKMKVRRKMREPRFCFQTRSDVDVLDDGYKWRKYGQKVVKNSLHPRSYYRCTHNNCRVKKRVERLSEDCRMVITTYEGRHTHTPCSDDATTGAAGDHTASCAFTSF

Sequence	binding signal
CTTCCTCGATCTGTTCTAGAGTTGTCCTCCAGCTGAGTTCCGGAGTCACCTAGTGCAG	9140 fluorescence intensity (a.u.)
TTCTTCGCTTGTCTCCAAGCTGTGTACTCTACTCCTCTGACGGAGTCACCTAGTGCAG	10000 fluorescence intensity (a.u.)
CCCGTCTCCTATAAGAGCCCATCTACACCGCCACCCACCCCGGAGTCACCTAGTGCAG	9400 fluorescence intensity (a.u.)
TCGTATATTCCACCTAATTCTGCAGTACTCTTTCTTGCCCCGGAGTCACCTAGTGCAG	9380 fluorescence intensity (a.u.)
AATATCTATAATTCTGTGAGATTTACTTTTTTTCCTTTCTCGGAGTCACCTAGTGCAG	8800 fluorescence intensity (a.u.)
TCGTGTACTTTGCACTTGCCAATTCCATTCCATTATTATACGGAGTCACCTAGTGCAG	8430 fluorescence intensity (a.u.)
GCCGCTCTCTGTCTCTGTCTCGGTCTCGGTCTCCGCCTCCCGGAGTCACCTAGTGCAG	10400 fluorescence intensity (a.u.)
ATGCATACGTGTGTCCCGTCTCTGCCTGCTGCTCTGTTCGCGGAGTCACCTAGTGCAG	11900 fluorescence intensity (a.u.)
AGACCCACAGTAATTAACCAGCGTAACCACCTTTCTTCCACGGAGTCACCTAGTGCAG	8350 fluorescence intensity (a.u.)
TAGCCATACTCTCTCTCTCTCTTCTCCACTCCTCTGATCGCGGAGTCACCTAGTGCAG	10200 fluorescence intensity (a.u.)
CGTGTTCGACATGTTACGCATATTTGATCTGTTCATGTTTCGGAGTCACCTAGTGCAG	9890 fluorescence intensity (a.u.)
GCAAACTTTATTGCTCCGCGTTCTTCCTTTCTCTGTGTTTCGGAGTCACCTAGTGCAG	8910 fluorescence intensity (a.u.)
ATATGTTTAAAAAAGTCAACGGCGTCAAACATTTAGGGATCGGAGTCACCTAGTGCAG	18600 fluorescence intensity (a.u.)
ACCCCTATAAATACCCACCATCTGCCGCGCCATCCCATCGCGGAGTCACCTAGTGCAG	9180 fluorescence intensity (a.u.)
CTCGTCTTCCCCACCCCTCGCCTCCTCGCGCGCTCGGTGACGGAGTCACCTAGTGCAG	8100 fluorescence intensity (a.u.)
CACCAATAGCTCGTTGTCGCTCACCGTCTCAGGTGAAGCTCGGAGTCACCTAGTGCAG	8490 fluorescence intensity (a.u.)
ATCGATCACCACGCCCACCTTCATCTCCTCCACGATGAACCGGAGTCACCTAGTGCAG	9740 fluorescence intensity (a.u.)
AGCGTCGTAGACTTTTTGCTGGTAGCGCCTTGCCATTCACCGGAGTCACCTAGTGCAG	8430 fluorescence intensity (a.u.)
TATACTAGTGTACTGCACTGCATGCCACTCATACTCACTACGGAGTCACCTAGTGCAG	10400 fluorescence intensity (a.u.)
TCGCTCTCATCCCCAAACTCGCAACCACCGCCCGCTCTCACGGAGTCACCTAGTGCAG	8080 fluorescence intensity (a.u.)
TTGGCTCTAATATCACTGGTCTACTATTGCGTTGTTTTATCGGAGTCACCTAGTGCAG	8300 fluorescence intensity (a.u.)

Sequence	binding signal
AAAAAGTCAACAGCGTTGAATTTTTAGAAACGGAGGAAGTCGGAGTCACCTAGTGCAG	8280 fluorescence intensity (a.u.)
TCTCTCTCGCTCGCTCACGCAGTCTCTCACCACGACTCTCCGGAGTCACCTAGTGCAG	11400 fluorescence intensity (a.u.)
ACATTAACTAACCGACTATAACTGATCACTGTATTAATTACGGAGTCACCTAGTGCAG	8180 fluorescence intensity (a.u.)
AAAAGTACACACTGCTTTGACTCAGGTCAAACTTGGACTTCGGAGTCACCTAGTGCAG	8060 fluorescence intensity (a.u.)
GCAACCACCGCCGCCTCGCCGCAGCATCACCCGCAGCCGCCGGAGTCACCTAGTGCAG	8220 fluorescence intensity (a.u.)
GTGGGTGGGTTTGGAGTTTGGACTGTTTAGGGCCTTTTGACGGAGTCACCTAGTGCAG	23300 fluorescence intensity (a.u.)
ACTGTCGTGCCACAGTGGACGTGTGCGGCAGGTGAAGCACCGGAGTCACCTAGTGCAG	49100 fluorescence intensity (a.u.)
ACTTCACTCGCACCGTGTCCGTGTGTTGCGTGTGTATATACGGAGTCACCTAGTGCAG	8100 fluorescence intensity (a.u.)
TCACTGGTTTGCTGGAGGTACAACTTGAAGCAGCACATTTCGGAGTCACCTAGTGCAG	8140 fluorescence intensity (a.u.)
CACTTTTCCTGTCTTTCATGTCGTCCTATATAAAGGCACACGGAGTCACCTAGTGCAG	9810 fluorescence intensity (a.u.)
CTTTGCTTTTGTTTACGGTTCACGCCACGGCGCGAGTTTCCGGAGTCACCTAGTGCAG	8420 fluorescence intensity (a.u.)
TAAGTAAAATTCATACTCTCTCTATCTTGGAACATGTCTACGGAGTCACCTAGTGCAG	8530 fluorescence intensity (a.u.)
CCACTTGTTTTTTTGTTTTGTTTGTGTAACCGATATGTGGCGGAGTCACCTAGTGCAG	8840 fluorescence intensity (a.u.)
CCCCTGCTTCCGTGTGCTGCTGGTCTTGCTTCGCTTCGATCGGAGTCACCTAGTGCAG	8650 fluorescence intensity (a.u.)
AGGGTTTGTCTTTTTTTTTTTGGACGGAGGGAGTAGGCCACGGAGTCACCTAGTGCAG	8520 fluorescence intensity (a.u.)
CTCTCCGCGTCACTTCTCTTCCACCTCTTGTAGTAGCTGCCGGAGTCACCTAGTGCAG	9890 fluorescence intensity (a.u.)
ATCATCTCGGTCCAAAGCCGCATTTGACCGTGGTCTTGCCCGGAGTCACCTAGTGCAG	12000 fluorescence intensity (a.u.)
GGTTCTAGTGAGCTTTATCTCTTTTTTTCATGTGATTTTTCGGAGTCACCTAGTGCAG	10200 fluorescence intensity (a.u.)
ACTTTTTTCTTCAAACTTCCAATTTTAGTCAAACTTTCAACGGAGTCACCTAGTGCAG	8550 fluorescence intensity (a.u.)
GCATGCGCGGGAGAGGGCAAAGGGTGGGGCCGGGCTGTCGCGGAGTCACCTAGTGCAG	13000 fluorescence intensity (a.u.)
ATGTTTTCCGTGTGTTTTAGCTCAGTTATGTTCTGTTCAACGGAGTCACCTAGTGCAG	12600 fluorescence intensity (a.u.)

Already shown: entries from further up.
Sequence	binding signal
CCCGTCTCCTATAAGAGCCCATCTACACCGCCACCCACCCCGGAGTCACCTAGTGCAG	9400 fluorescence intensity (a.u.)
TCGTATATTCCACCTAATTCTGCAGTACTCTTTCTTGCCCCGGAGTCACCTAGTGCAG	9380 fluorescence intensity (a.u.)
AATATCTATAATTCTGTGAGATTTACTTTTTTTCCTTTCTCGGAGTCACCTAGTGCAG	8800 fluorescence intensity (a.u.)
TCGTGTACTTTGCACTTGCCAATTCCATTCCATTATTATACGGAGTCACCTAGTGCAG	8430 fluorescence intensity (a.u.)
GCCGCTCTCTGTCTCTGTCTCGGTCTCGGTCTCCGCCTCCCGGAGTCACCTAGTGCAG	10400 fluorescence intensity (a.u.)
ATGCATACGTGTGTCCCGTCTCTGCCTGCTGCTCTGTTCGCGGAGTCACCTAGTGCAG	11900 fluorescence intensity (a.u.)
AGACCCACAGTAATTAACCAGCGTAACCACCTTTCTTCCACGGAGTCACCTAGTGCAG	8350 fluorescence intensity (a.u.)
TAGCCATACTCTCTCTCTCTCTTCTCCACTCCTCTGATCGCGGAGTCACCTAGTGCAG	10200 fluorescence intensity (a.u.)
CGTGTTCGACATGTTACGCATATTTGATCTGTTCATGTTTCGGAGTCACCTAGTGCAG	9890 fluorescence intensity (a.u.)
GCAAACTTTATTGCTCCGCGTTCTTCCTTTCTCTGTGTTTCGGAGTCACCTAGTGCAG	8910 fluorescence intensity (a.u.)
ATATGTTTAAAAAAGTCAACGGCGTCAAACATTTAGGGATCGGAGTCACCTAGTGCAG	18600 fluorescence intensity (a.u.)
ACCCCTATAAATACCCACCATCTGCCGCGCCATCCCATCGCGGAGTCACCTAGTGCAG	9180 fluorescence intensity (a.u.)
CTCGTCTTCCCCACCCCTCGCCTCCTCGCGCGCTCGGTGACGGAGTCACCTAGTGCAG	8100 fluorescence intensity (a.u.)
CACCAATAGCTCGTTGTCGCTCACCGTCTCAGGTGAAGCTCGGAGTCACCTAGTGCAG	8490 fluorescence intensity (a.u.)

Remaining list, next part:

Sequence	binding signal
TTTTATCTACTTTAAATATATTTAGCCTTTTACTTTTATACGGAGTCACCTAGTGCAG	8530 fluorescence intensity (a.u.)
CAGGGCGGCGTTCTCGATGTGCTCGGGGCAGGGGCGGACGCGGAGTCACCTAGTGCAG	16100 fluorescence intensity (a.u.)
TCCTACAACTCTCGTATTTCCAATTTTCCAAACAACTATCCGGAGTCACCTAGTGCAG	8160 fluorescence intensity (a.u.)
CTCATCTACCTCCTCAGCTTCTTCGGCATCGCCTTCGTGCCGGAGTCACCTAGTGCAG	8720 fluorescence intensity (a.u.)
TGCCTCCGGGGATGCCGTCACTTTCTCGTTCCCCAACTCCCGGAGTCACCTAGTGCAG	12200 fluorescence intensity (a.u.)
AATTACCCATCTTTGCACTTCTATATATAATATATGCAACCGGAGTCACCTAGTGCAG	11000 fluorescence intensity (a.u.)
CTCCCACCGCCCACCGCCCACCGCCGCGCCGGCCATGGCTCGGAGTCACCTAGTGCAG	9840 fluorescence intensity (a.u.)
CCTCTCCTCTCGCTCCGCTCTCTCTCCTGCCCAAGCGACGCGGAGTCACCTAGTGCAG	10200 fluorescence intensity (a.u.)
TCCCGTACCCCTCCCTCCAGCCCACCAACGCCCTCGAGAACGGAGTCACCTAGTGCAG	8290 fluorescence intensity (a.u.)
CCACTATTCTTTCCAGTTTCCACACACCTTGCTCCATCCACGGAGTCACCTAGTGCAG	8150 fluorescence intensity (a.u.)
TCTGACTTTTCTTTTTTTGTTTTCATGTTTTTTCACCCTTCGGAGTCACCTAGTGCAG	12700 fluorescence intensity (a.u.)
TGCTGTTATTTTCGGATGGATTTGAGTTTTATGAAACTCACGGAGTCACCTAGTGCAG	8690 fluorescence intensity (a.u.)
TTGGTGCTGTTGGTGCGTGGGTGGTGGTATAATTTTCTTTCGGAGTCACCTAGTGCAG	11900 fluorescence intensity (a.u.)
CCACTTGGATGTAATTGTCTGGGTTTTCTCTCAATTTATACGGAGTCACCTAGTGCAG	8920 fluorescence intensity (a.u.)
ATTTTTTCCTCTAATTAAGTCATATCACATCAATTGTTTTCGGAGTCACCTAGTGCAG	10200 fluorescence intensity (a.u.)
TGGAGGGTGTCGATATGGTTGGTAGTTGCTTGGAGGACCACGGAGTCACCTAGTGCAG	8100 fluorescence intensity (a.u.)
ATAATGGGAAATGGAGGGTGGGATTGGGATTAGAAAATGACGGAGTCACCTAGTGCAG	9470 fluorescence intensity (a.u.)
GCTGGGGAAGTGAGGATTGATCGATTGGGGATTGGGGATTCGGAGTCACCTAGTGCAG	16000 fluorescence intensity (a.u.)
CCGCCGCGGCCGATCTCTCTAGGGCTTCCAACCTCGCCGGCGGAGTCACCTAGTGCAG	8300 fluorescence intensity (a.u.)
AAACCTCTCTTCTCTCTCTCCACCGCCGCCGCCGGTCTGCCGGAGTCACCTAGTGCAG	8770 fluorescence intensity (a.u.)
CTACCTCTATATTTTAATTTTAATGTATGACGTCGTTGACCGGAGTCACCTAGTGCAG	11100 fluorescence intensity (a.u.)

Sequence	binding signal
TACGCCTCCGCTGTCACAAGCGTATTACTATCTATTACGCCGGAGTCACCTAGTGCAG	9090 fluorescence intensity (a.u.)
CGACTTTCTGCAAGCGATGGTTGACTTGTACATAGTAATGCGGAGTCACCTAGTGCAG	8960 fluorescence intensity (a.u.)
CTATCGATCTCTCTCTCTCCTCTTCGGTTCCAGCTCTTCTCGGAGTCACCTAGTGCAG	9500 fluorescence intensity (a.u.)
GGTGGTGGTGGCGCGGCCGCTCCAACAATCGCGAGGTGAGCGGAGTCACCTAGTGCAG	8650 fluorescence intensity (a.u.)
TGGTATGAATGGATAATTTGTTTCTGTCTTATGTGTTGCTCGGAGTCACCTAGTGCAG	9810 fluorescence intensity (a.u.)
GAGGAGTGGGAGGAAAATGAGTGGTGGGGAAAGGATAGGGCGGAGTCACCTAGTGCAG	8630 fluorescence intensity (a.u.)
GGTGGGCGCATCGCGTTTTTGCGGTTTTTGCTTCTCTTCTCGGAGTCACCTAGTGCAG	13000 fluorescence intensity (a.u.)
GTGCCTGTTTGCTTCAGTGATGCTGGTGGTGGTTGCCTAACGGAGTCACCTAGTGCAG	9460 fluorescence intensity (a.u.)
TTCATTGCTGTCATTTTTCCGTCGAGTTCCATCTCTTGATCGGAGTCACCTAGTGCAG	11200 fluorescence intensity (a.u.)
ACACCTATAGACCCAGACTGCCAAACCCAGTCTTTTGTATCGGAGTCACCTAGTGCAG	8300 fluorescence intensity (a.u.)
CTCCCAGACCCCTTTCTCTTTAGGTGTGCACATTCTGTCCCGGAGTCACCTAGTGCAG	8600 fluorescence intensity (a.u.)
CTAGCTACCCTTCGTGCCCAACAGCCCATACCTTACCATGCGGAGTCACCTAGTGCAG	8560 fluorescence intensity (a.u.)
TTAGGGGTGGAGATTTCTGGTTTTGTGGTTAAGCAACCTTCGGAGTCACCTAGTGCAG	14700 fluorescence intensity (a.u.)
CTTAGTGGTTTTTTTTTCTCACATGGCACAAATCTCAAGACGGAGTCACCTAGTGCAG	9290 fluorescence intensity (a.u.)
TATTATAATTTATTTTGTTGTAAGTTGTTTTATCACTTAACGGAGTCACCTAGTGCAG	10400 fluorescence intensity (a.u.)
AATCTCTATCGATCTGTTTGTTTACATGTTCAGTTAAAGGCGGAGTCACCTAGTGCAG	9240 fluorescence intensity (a.u.)
TTAATCTCTCGCCGTATCCATCGCCGGAGCGCAGAACGACCGGAGTCACCTAGTGCAG	8830 fluorescence intensity (a.u.)
TTCGTCTTCCTCAAGCCATGGCACGTGATGCTGATCCATCCGGAGTCACCTAGTGCAG	8820 fluorescence intensity (a.u.)
TCAGGTGGAGCTTGCTTGTTTTGTTTACGTCCATCCTTGCCGGAGTCACCTAGTGCAG	8350 fluorescence intensity (a.u.)
ACCATAATCTCTAGCCTGCTTTTTGATTGCCAATAAGGTTCGGAGTCACCTAGTGCAG	8380 fluorescence intensity (a.u.)
GCCCGGGCTCCAGCTAGATCCGACCACTCCCCTTTTTACGCGGAGTCACCTAGTGCAG	8080 fluorescence intensity (a.u.)

Source: article PMC7819943, “Rice protein-binding microarrays: a tool to detect cis-acting elements near promoter regions in rice”
